The text below walks through data of publication PMC9246188.

These are yes or no findings as the source states them, for the method shown. In cells and extracts the contact can be indirect. Here binding means that the protein was enriched with, or labelled near, the bait; the list need not be complete.

The labels stand for the following.
B1: Rtn4/Nogo-A (protein, UniProt Q99P72-2 1-1162)
chain: MEDIDQSSLVSSSADSPPRPPPAFKYQFVTEPEDEEDEEDEEEEEDDEDLEELEVLERKPAAGLSAAPVPPAAAPLLDFSSDSVPPAPRGPLPAAPPTAPERQPSWERSPAASAPSLPPAAAVLPSKLPEDDEPPARPPAPAGASPLAEPAAPPSTPAAPKRRGSGSVDETLFALPAASEPVIPSSAEKIMDLKEQPGNTVSSGQEDFPSVLFETAASLPSLSPLSTVSFKEHGYLGNLSAVASTEGTIEETLNEASRELPERATNPFVNRESAEFSVLEYSEMGSSFNGSPKGESAMLVENTKEEVIVRSKDKEDLVCSAALHNPQESPATLTKVVKEDGVMSPEKTMDIFNEMKMSVVAPVREEYADFKPFEQAWEVKDTYEGSRDVLAARANMESKVDKKCFEDSLEQKGHGKDSESRNENASFPRTPELVKDGSRAYITCDSFSSATESTAANIFPVLEDHTSENKTDEKKIEERKAQIITEKTSPKTSNPFLVAIHDSEADYVTTDNLSKVTEAVVATMPEGLTPDLVQEACESELNEATGTKIAYETKVDLVQTSEAIQESIYPTAQLCPSFEEAEATPSPVLPDIVMEAPLNSLLPSTGASVAQPSASPLEVPSPVSYDGIKLEPENPPPYEEAMSVALKTSDSKEEIKEPESFNAAAQEAEAPYISIACDLIKETKLSTEPSPEFSNYSEIAKFEKSVPDHCELVDDSSPESEPVDLFSDDSIPEVPQTQEEAVMLMKESLTEVSETVTQHKHKERLSASPQEVGKPYLESFQPNLHITKDAASNEIPTLTKKETISLQMEEFNTAIYSNDDLLSSKEDKMKESETFSDSSPIEIIDEFPTFVSAKDDSPKEYTDLEVSNKSEIANVQSGANSLPCSELPCDLSFKNTYPKDEAHVSDEFSKSRSSVSKVPLLLPNVSALESQIEMGNIVKPKVLTKEAEEKLPSDTEKEDRSLTAVLSAELNKTSVVDLLYWRDIKKTGVVFGASLFLLLSLTVFSIVSVTAYIALALLSVTISFRIYKGVIQAIQKSDEGHPFRAYLESEVAISEELVQKYSNSALGHVNSTIKELRRLFLVDDLVDSLKFAVLMWVFTYVGALFNGLTLLILALISLFSIPVIYERHQAQIDHYLGLANKSVKDAMAKIQAKIPGLKRKAE
B2: Cct8 (protein, UniProt P42932 1-548)
chain: MALHVPKAPGFAQMLKDGAKHFSGLEEAVYRNIQACKELAQTTRTAYGPNGMNKMVINRLEKLFVTNDAATILRELEVQHPAAKMIVMASHMQEQEVGDGTNFVLVFAGALLELAEELLRIGLSVSEVISGYEIACKKAHEILPELVCCSAKNLRDVDEVSSLLRTSIMSKQYGSETFLAKLIAQACVSIFPDSGNFNVDNIRVCKILGSGIYSSSVLHGMVFKKETEGDVTSVKDAKIAVYSCPFDGMITETKGTVLIKTAEELMNFSKGEENLMDAQVKAIAGTGANVIVTGGKVADIALHYANKYNIMLVRLNSKWDLRRLCKTVGATALPKLTPPVQEEMGHCDSVYLSEVGDTQVVVFKHEKEDGAISTIVLRGSTDNLMDDIERAVDDGVNTFKVLTRDKRLVPGGGATEIELAKQITSYGETCPGLEQYAIKKFAEAFEAIPRALAENSGVKANEVISKLYSVHQEGNKNVGLDIEAEVPAVKDMLEASILDTYLGKYWAIKLATNAAVTVLRVDQIIMAKPAGGPKPPSGKKDWDDDQND
B3: Stathmin2 (protein, UniProt P55821 1-179)
chain: MAKTAMAYKEKMKELSMLSLICSCFYPEPRNINIYTYDDMEVKQINKRASGQAFELILKPPSPISEAPRTLASPKKKDLSLEEIQKKLEAAEERRKSQEAQVLKQLAEKREHEREVLQKALEENNNFSKMAEEKLILKMEQIKENREANLAAIIERLQEKERHAAEVRRNKELQVELSG
B4: Vat1L (protein, UniProt Q80TB8 1-417)
chain: MAKEGVEKAEETEQMIEKETSKEPAEGGDGSHRLGDAQEMRAVVLAGFGGLNKLRLSRKAMPEPQDGELKIRVKACGLNFIDLMVRQGNIDNPPKTPLVPGFECSGIVEALGDSVKGYEIGDRVMAFVNYNAWAEVVCTPVEFVYKIPDDMSFSEAAAFPMNFVTAYTMLFEIANLREGMSVLVHSAGGGVGQAVAQLCSTVPNVTVFGTASTFKHEAIKDSVTHLFDRNADYVQEVKRISAEGVDIVLDCLCGDNTGKGLSLLKPLGTYILYGSSNMVTGETKSFFSFAKSWWQVEKVNPIKLYEENKVIAGFSLLNLLFKQGRSGLIRGVVEKLIGLYNQKKIKPVVDSLWALEEVKEAMQRIHDRGNIGKLILDVEKTPTPLMANDSTETSEAGEEEEDHEGDSENKERMPFIQ
B5: α-internexin (protein, UniProt P46660 1-501)
chain: MSFGSEHYLCSASSYRKVFGDSSRLSARLSGPGGSGSFRSQSLSRSNVASTAACSSASSLGLGLAYRRLPASDGLDLSQAAARTNEYKIIRTNEKEQLQGLNDRFAVFIEKVHQLETQNRALEAELAALRQRHAEPSRVGELFQRELRELRAQLEEASSARAQALLERDGLAEEVQRLRARCEEESRGREGAERALKAQQRDVDGATLARLDLEKKVESLLDELAFVRQVHDEEVAELLATLQASSQAAAEVDVAVAKPDLTSALREIRAQYESLAAKNLQSAEEWYKSKFANLNEQAARSTEAIRASREEIHEYRRQLQARTIEIEGLRGANESLERQILELEERHSAEVAGYQDSIGQLESDLRNTKSEMARHLREYQDLLNVKMALDIEIAAYRKLLEGEETRFSTGGLSISGLNPLPNPSYLLPPRILSSTASKVSSAGLSLKKEEEEEEEEASKEVSKKTSKVGEGFEETLGEAVISTKKTGKSATEESTSSSQKM

One assay has as its target Pants-V5-TurboID fusion protein (Plasticity-Associated Neural Transcript Short, Pants) (mouse (endogenous in Neuro2A)). The assay can be described thus: proximity labelling; separate clonal Pants-Turbo transgenic cell line; biotin labelling; streptavidin capture, elution by boiling in SDS sample buffer with DTT and biotin; Western blot with commercial antibodies to selected hits; N2A controls.
Take B1: the binding result is “binds”.

In the case of B2, the binding result is on record as “binds”.

For another assay the target is unchanged. The assay can be described thus: proximity labelling; Pants-V5-TurboID from the endogenous locus in Neuro2a cells; 50 uM biotin for 18 hours; lysis in RIPA buffer; streptavidin beads; on-bead trypsinization; LC-MS; compared with N2a controls (n = 5 each).
B3: the binding entry is listed as “binds”. Take B1: the binding entry is “binds”.

For B4, the binding entry was “binds”. Regarding B5, the binding entry is recorded as “binds”. Still for that read-out and setting: the entry for B2 is “binds”.
